These are yes or no findings as the source states them, for the method shown. Binding seen in cells or lysates may run through a third protein. Here binding means that the protein was enriched with, or labelled near, the bait; the list need not be complete. Where a sequence is shown, tags or fusion partners need not be part of it.
Target: T1, His-PAR-5 (C. elegans) (UniProt P41932)
T1 sequence: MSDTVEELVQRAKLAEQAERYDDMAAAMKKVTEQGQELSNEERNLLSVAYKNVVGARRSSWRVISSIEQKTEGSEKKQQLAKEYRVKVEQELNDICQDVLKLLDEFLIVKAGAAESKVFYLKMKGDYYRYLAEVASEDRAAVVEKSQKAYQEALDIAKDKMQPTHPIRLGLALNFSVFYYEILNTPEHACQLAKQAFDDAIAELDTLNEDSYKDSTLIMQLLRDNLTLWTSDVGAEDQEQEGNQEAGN
Assay: affinity purification with mass spectrometry

B1: PhzA1 (protein, UniProt Q9HWH1 1-162)
chain: MNGQRYRETPLDIERLRRLNRATVERYMAMKGAERLQRHSLFVEDGCAGNWTTESGEPLVFRGHESLRRLAEWLERCFPDWEWHNVRIFETEDPNHFWVECDGRGKALVPGYPQGYCENHYIHSFELENGRIKRNREFMNPIQKLRALGIAVPQIKRDGIPT
binding: binds

B2: AmpR (protein, UniProt P24734 1-296)
chain: MVRPHLPLNALRAFEASARHLSFTRAAIELCVTQAAVSHQVKSLEERLGVALFKRLPRGLMLTHEGESLLPVLCDSFDRIAGLLERFEGGHYRDVLTVGAVGTFTVGWLLPRLEDFQARHPFIDLRLSTHNNRVDIAAEGLDYAIRFGGGAWHGTEALALFEAPLTVLCCPEVAAQLHSPADLLQHTLLRSYRADEWPLWFQAAGLPAHAPLTRSIVFDTSLAMLEAARQGVGVALAPAAMFARQLASESIRRPFATEVSTGSYWLTRLQSRGETSAMLAFRGWLLEMAAVEARGR
binding: binds

— publication doi:10.1101/2024.01.31.578330
